From PMC4557121, “TRB3 links insulin/IGF to tumour promotion by interacting with p62 and impeding autophagic/proteasomal degradations” (Nature Communications, 2015)
Results are given in words; binding and its absence hold for the method and conditions named. For part of these data: In cells and extracts the contact can be indirect. Some results given as binding are weak or reduced against the parent protein; the word gives no strength. Blank lines part the entries; values can stand above or below the substance they belong to.

Amino acid sequences for entries named in this document (tags omitted).
UniProt Q96RU7: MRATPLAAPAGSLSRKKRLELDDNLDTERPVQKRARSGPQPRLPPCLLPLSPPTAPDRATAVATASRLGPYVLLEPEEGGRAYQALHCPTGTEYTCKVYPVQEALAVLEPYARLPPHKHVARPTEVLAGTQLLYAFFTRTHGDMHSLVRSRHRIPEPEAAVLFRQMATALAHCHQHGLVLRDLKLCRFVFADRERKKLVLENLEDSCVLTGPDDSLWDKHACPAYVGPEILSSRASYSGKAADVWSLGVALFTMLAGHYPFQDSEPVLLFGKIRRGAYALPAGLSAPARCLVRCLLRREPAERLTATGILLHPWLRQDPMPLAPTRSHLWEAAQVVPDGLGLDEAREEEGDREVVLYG
UniProt Q13546: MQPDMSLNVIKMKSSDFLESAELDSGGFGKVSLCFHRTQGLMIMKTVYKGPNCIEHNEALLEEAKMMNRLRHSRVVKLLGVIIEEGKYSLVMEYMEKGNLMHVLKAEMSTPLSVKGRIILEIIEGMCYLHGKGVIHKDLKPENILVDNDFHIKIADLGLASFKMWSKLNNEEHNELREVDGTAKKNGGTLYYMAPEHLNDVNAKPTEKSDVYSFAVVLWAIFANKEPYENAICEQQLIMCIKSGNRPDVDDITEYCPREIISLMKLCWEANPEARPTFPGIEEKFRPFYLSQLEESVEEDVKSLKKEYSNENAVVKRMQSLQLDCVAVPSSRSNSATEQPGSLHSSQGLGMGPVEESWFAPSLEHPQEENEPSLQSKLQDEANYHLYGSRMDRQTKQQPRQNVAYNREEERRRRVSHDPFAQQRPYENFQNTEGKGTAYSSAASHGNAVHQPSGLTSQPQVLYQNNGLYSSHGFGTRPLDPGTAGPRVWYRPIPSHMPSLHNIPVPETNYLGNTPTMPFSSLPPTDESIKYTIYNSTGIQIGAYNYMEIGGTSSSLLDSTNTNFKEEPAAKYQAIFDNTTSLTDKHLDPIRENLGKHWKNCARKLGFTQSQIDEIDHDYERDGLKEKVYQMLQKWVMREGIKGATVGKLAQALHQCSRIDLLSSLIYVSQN

Legend:
[1] = target: purified TRB3 protein (UniProt Q96RU7); experiment: ELISA; competitive: plates coated with TRB3; p62 binding competed with 0.1–100 μg ml^-1 of HRP-non-conjugated A2 or control peptide, 1 h; both purified
[2] = target: TRB3-GST fusion protein (UniProt Q96RU7); experiment: pull-down; purified and immobilized GST fusion proteins from E. coli BL21 incubated with His-tagged purified protein; bound proteins blotted with anti-His antibody; both purified
[3] = target: p62 (endogenous) (human (endogenous in HepG2)) (UniProt Q13501); experiment: co-IP; HepG2 cells treated with control or Pep2–A2 peptide (5 μM, 12 h), lysates immunoprecipitated; Supplementary Fig. 6b–f, legend not shown

binding [1]: binds
Substance: p62 protein (ELISA) (from UniProt Q13501 1-440)

binding [2]: binds
Substance: His-p62 (from UniProt Q13501 1-440)

binding [3]: binds
Substance: RIP1 (from UniProt Q13546 1-671)
